In patent US20190359711A1:

Experiments:
[1] = molecular target: Soy Trypsin Inhibitor (soy); assay: condition: tested at 1 µM; response unit ≥100 predicts non-specific binding; SPR (Biacore 8K), antibody passed over immobilized protein
Lysozyme = assay: as above

| binding [1] | binding (Lysozyme) | Binder |
| --- | --- | --- |
| no binding | no binding | TMEB762 (antibody, human IgG4 S228P, kappa, F234A L235A, V domains shown) VH: EVQLLESGGGLVQPGGSLRLSCAASGFTFSSYSMSWVRQAPGKGLEWVSVISGSGGFTDYADSVKGRFTISRDNSKNTLYLQMNSLRAEDTAVYYCARMPLNSPHDYWGQGTLVTVSS VL: DIQMTQSPSSLSASVGDRVTITCRASQGIRNDLGWYQQKPGKAPKLLIYAASSLQSGVPSRFSGSGSGTDFTLTISSLQPEDFATYYCLQDYNYPLTFGGGTKVEIKR |
| no binding | no binding | CD3B376 (antibody, V domains shown) VH: QVQLQQSGPRLVRPSQTLSLTCAISGDSVFNNNAAWSWIRQSPSRGLEWLGRTYYRSKWLYDYAVSVKSRITVNPDTSRNQFTLQLNSVTPEDTALYYCARGYSSSFDYWGQGTLVTVSS VL: QSALTQPASVSGSPGQSITISCTGTSSNIGTYKFVSWYQQHPDKAPKVLLYEVSKRPSGVSSRFSGSKSGNTASLTISGLQAEDQADYHCVSYAGSGTLLFGGGTKLTVLG |

These are yes or no findings as the source states them, for the method shown.
